These are literature values, as cited in patent US6469027B1, “N-methyl-D-aspartate (NMDA) receptor blockers for the prevention of atherosclerosis” (The Board of Regents of the University of Nebraska, priority 1996, dated 2002).

The data set has as its system rat liver cells. As to conditions: cited from earlier work.

In the case of `N[C@@H](CCS)C(=O)O` [homocysteine], the “bound H[cys] associated with membrane particulate” value is 20% and the “protein bound H[cys] in the cytosol fraction” value is 30%.
